For six molecules, binding results are on record in PMC10782615.

By UniProt entry, the sequences of proteins in these tests, tags left out.
UniProt Q99623: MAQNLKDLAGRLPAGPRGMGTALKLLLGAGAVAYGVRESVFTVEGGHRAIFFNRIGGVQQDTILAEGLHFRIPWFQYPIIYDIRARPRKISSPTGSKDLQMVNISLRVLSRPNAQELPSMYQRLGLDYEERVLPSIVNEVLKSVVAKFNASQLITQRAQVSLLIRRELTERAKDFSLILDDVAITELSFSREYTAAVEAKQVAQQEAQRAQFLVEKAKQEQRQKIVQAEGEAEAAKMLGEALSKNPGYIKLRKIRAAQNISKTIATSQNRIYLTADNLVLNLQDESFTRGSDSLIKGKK
UniProt P46934: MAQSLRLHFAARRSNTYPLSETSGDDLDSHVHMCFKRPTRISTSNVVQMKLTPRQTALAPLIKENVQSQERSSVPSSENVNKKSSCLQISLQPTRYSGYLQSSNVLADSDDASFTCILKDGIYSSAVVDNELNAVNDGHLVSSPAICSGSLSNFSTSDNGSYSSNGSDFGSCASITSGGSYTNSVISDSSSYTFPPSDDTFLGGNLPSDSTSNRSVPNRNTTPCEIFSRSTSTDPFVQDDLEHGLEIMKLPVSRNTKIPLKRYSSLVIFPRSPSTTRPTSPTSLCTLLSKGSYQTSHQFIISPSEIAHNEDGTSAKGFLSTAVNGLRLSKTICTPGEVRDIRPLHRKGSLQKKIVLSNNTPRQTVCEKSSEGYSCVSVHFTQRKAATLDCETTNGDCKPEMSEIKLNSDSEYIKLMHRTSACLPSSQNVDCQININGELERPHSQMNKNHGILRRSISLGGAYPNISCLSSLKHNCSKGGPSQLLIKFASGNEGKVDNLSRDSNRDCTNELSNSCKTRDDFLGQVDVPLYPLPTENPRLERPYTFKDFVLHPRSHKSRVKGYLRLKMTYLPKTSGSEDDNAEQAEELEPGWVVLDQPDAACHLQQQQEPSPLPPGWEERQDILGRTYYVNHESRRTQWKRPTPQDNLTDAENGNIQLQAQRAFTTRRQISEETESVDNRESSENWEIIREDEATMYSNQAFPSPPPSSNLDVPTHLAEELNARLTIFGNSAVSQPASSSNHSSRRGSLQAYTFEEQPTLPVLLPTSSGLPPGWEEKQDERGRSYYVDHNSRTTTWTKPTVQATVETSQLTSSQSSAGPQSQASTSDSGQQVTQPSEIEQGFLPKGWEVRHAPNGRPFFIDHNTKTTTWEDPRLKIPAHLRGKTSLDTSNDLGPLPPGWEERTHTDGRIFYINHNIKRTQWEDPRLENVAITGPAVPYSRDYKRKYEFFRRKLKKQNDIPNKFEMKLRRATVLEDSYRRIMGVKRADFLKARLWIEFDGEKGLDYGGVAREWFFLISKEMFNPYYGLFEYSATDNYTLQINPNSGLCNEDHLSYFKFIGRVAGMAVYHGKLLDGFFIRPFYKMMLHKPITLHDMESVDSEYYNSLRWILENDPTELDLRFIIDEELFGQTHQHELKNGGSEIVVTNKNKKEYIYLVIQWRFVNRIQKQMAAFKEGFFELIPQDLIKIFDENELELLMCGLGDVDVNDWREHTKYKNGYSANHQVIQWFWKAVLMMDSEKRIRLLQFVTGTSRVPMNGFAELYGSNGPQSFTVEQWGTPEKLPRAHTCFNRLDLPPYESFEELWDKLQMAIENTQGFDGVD
UniProt Q13619: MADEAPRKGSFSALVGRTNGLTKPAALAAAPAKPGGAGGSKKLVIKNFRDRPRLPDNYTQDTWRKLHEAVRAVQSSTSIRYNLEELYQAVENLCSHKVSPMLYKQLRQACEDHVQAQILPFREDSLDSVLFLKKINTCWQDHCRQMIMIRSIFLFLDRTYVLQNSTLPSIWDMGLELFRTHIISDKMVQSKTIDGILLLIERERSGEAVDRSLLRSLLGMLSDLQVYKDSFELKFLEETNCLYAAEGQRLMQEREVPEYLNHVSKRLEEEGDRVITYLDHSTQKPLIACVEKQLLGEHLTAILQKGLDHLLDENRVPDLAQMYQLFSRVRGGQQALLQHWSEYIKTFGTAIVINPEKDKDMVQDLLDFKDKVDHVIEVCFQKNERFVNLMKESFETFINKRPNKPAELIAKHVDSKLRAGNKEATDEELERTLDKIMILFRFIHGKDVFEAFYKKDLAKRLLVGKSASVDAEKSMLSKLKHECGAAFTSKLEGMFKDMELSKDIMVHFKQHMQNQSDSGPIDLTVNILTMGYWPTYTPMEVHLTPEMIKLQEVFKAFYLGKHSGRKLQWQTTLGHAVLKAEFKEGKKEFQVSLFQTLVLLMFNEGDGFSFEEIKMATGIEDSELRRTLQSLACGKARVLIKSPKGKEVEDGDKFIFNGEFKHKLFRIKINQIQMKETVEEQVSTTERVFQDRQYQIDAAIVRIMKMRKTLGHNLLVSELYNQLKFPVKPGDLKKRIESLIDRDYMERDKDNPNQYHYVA
UniProt Q969V5: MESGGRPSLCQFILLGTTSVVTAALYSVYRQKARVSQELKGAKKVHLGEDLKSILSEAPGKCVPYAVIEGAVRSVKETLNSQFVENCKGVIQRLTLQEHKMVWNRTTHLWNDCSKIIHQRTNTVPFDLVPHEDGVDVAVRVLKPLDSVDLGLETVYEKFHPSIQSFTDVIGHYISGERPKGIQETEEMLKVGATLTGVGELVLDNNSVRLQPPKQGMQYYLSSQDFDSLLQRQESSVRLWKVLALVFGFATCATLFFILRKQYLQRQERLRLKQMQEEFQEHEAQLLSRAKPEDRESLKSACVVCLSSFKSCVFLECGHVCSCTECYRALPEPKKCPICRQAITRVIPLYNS

No constants are given. Whether binding was seen depends on the method and setting. Binding seen in cells or lysates may run through a third protein. Some entries that bind do so weakly or less than the wild type. For part of these data: Where a sequence is shown, tags or fusion partners need not be part of it.

For test [1], the target named is T1, Src homology 2-containing inositol 5-phosphatase 2 (SHIP2), endogenous (human (endogenous in HGC-27 and MKN-28)) (UniProt O15357).
T1 sequence: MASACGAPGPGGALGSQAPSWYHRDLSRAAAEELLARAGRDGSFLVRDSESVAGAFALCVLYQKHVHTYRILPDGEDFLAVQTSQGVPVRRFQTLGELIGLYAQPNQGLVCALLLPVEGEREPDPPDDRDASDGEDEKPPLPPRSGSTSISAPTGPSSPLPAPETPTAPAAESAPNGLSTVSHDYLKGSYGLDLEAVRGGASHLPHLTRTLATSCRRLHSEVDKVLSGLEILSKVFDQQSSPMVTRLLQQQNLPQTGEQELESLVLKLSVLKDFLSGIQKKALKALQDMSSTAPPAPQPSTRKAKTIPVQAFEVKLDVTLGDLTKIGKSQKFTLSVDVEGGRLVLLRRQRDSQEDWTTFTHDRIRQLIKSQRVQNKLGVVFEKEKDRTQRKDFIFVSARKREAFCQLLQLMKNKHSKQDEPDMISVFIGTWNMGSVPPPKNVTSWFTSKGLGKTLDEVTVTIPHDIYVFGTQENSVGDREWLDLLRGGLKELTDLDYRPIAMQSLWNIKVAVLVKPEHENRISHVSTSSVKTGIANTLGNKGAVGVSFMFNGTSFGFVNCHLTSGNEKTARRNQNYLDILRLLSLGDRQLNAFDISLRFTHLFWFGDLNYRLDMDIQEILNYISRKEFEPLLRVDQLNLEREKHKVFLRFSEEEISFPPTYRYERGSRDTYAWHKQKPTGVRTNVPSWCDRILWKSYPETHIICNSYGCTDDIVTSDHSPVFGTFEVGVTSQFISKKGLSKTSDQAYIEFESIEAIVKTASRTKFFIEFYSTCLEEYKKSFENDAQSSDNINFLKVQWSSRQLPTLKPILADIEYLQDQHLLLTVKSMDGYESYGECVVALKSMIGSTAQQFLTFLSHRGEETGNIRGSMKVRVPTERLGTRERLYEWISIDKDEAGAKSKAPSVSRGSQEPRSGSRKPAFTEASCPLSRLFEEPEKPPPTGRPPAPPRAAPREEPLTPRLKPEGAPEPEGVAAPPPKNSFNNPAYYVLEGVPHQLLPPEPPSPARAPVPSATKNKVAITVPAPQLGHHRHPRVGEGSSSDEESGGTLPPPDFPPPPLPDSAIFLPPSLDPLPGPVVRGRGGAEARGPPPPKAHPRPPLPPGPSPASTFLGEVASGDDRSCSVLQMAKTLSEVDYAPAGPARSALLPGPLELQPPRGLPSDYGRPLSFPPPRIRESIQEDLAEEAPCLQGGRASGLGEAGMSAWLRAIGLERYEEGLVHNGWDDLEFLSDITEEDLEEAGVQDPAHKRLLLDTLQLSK
Put plainly: co-IP; HGC-27 cells; blots for NEDD4, SIAH2, WWP2, MUL1 and Cul4A.

In test [2] the target is Prohibitin 2 (PHB2), endogenous (human (endogenous in HGC-27 and MKN-28)) (UniProt Q99623). The description is as above.
For test [3] the target is unchanged. Put plainly: co-IP; endogenous proteins, HGC-27 and MKN-28 cell extracts, antibody and protein A/G agarose beads, 4 °C.
Test [4] has as its target Flag-PHB2 (full-length PHB2, PHB2-FL) (UniProt Q99623). Nature of the test: co-IP; deletion mapping of SHIP2 truncates and PHB2 mutants in HEK293T cells.
In another test the target is GST-PHB2 (UniProt Q99623). Put plainly: pull-down; tGFP-SHIP2 from HGC-27 cells (also with stable knockdown of PHB1) incubated with purified GST, GST-PHB1 or GST-PHB2 at 4 °C for 4 h, then GST beads 4 h at 4 °C; Western blot; only the target purified.
Test [5] concerns the target Flag-PHB2 (full-length PHB2, PHB2-FL) (UniProt Q99623). Nature of the test: co-IP; exogenous Flag-PHB2 and tGFP-SHIP2 in AGS cells.

With “NEDD4, endogenous (from UniProt P46934 1-1319) (enzyme)”, the binding entry in test [1] and in test [2] was “binds” each time.
For Cul4A (from UniProt Q13619 1-759), the binding entry in test [1] is given as “no binding”.
Turning to “MUL1 (from UniProt Q969V5 1-352) (enzyme)”, the binding result in test [1] is “no binding”.

B1: SIAH2 (enzyme, UniProt O43255 1-324)
chain: MSRPSSTGPSANKPCSKQPPPQPQHTPSPAAPPAAATISAAGPGSSAVPAAAAVISGPGGGGGAGPVSPQHHELTSLFECPVCFDYVLPPILQCQAGHLVCNQCRQKLSCCPTCRGALTPSIRNLAMEKVASAVLFPCKYATTGCSLTLHHTEKPEHEDICEYRPYSCPCPGASCKWQGSLEAVMSHLMHAHKSITTLQGEDIVFLATDINLPGAVDWVMMQSCFGHHFMLVLEKQEKYEGHQQFFAIVLLIGTRKQAENFAYRLELNGNRRRLTWEATPRSIHDGVAAAIMNSDCLVFDTAIAHLFADNGNLGINVTISTCCP
As for B1, the binding result in test [1] was “no binding”.

B2: Src homology 2-containing inositol 5-phosphatase 2 (SHIP2), endogenous (protein, UniProt O15357 1-1258)
chain: T1 sequence
Regarding B2, the binding entry in test [3] was “binds”.

B3: tGFP-SHIP2 (full-length SHIP2, SHIP2-FL) (protein, UniProt O15357 1-1258)
chain: T1 sequence
For B3, the binding result (in test [4]; with GST-PHB2; in test [5]) was “binds” each time.
